In the supplement of paper PMC12823440, “Inhibitors supercharge kinase turnover through native proteolytic circuits” (Nature, 2025):
Some of the results follow. Hit calls seldom repeat between salt and free forms of one compound.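 Kinases were expressed as nanoluciferase fusions in K562 cells and luminescence was read every 4 h between 2 and 18 h as percent of control, DMSO set to 100% and a positive control to 0%. A time point counts as decreased when the signal drops significantly (2 sigma). The hit call is the authors' own, does not follow from the count of time points alone, and its rule is not shown.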

Chains of the proteins cited; added tags and fusions are not shown. Lines headed by an entry give the natural chain unless they say otherwise; changes in a name come on top.
UniProt Q13555: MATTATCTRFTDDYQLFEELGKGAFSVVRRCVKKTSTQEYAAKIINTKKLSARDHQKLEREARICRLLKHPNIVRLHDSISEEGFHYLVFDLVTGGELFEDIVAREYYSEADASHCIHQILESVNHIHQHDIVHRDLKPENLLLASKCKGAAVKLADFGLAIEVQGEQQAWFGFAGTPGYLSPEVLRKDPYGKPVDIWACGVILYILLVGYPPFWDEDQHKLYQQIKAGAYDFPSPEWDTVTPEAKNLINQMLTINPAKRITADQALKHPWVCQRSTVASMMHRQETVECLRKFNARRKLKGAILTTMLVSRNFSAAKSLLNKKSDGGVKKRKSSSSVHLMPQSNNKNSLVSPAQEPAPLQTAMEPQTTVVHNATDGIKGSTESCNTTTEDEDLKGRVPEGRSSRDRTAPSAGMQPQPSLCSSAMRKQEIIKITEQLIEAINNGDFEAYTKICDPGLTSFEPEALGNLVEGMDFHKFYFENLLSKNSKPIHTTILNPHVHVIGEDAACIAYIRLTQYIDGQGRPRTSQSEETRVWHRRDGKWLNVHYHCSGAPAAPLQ
UniProt Q15131: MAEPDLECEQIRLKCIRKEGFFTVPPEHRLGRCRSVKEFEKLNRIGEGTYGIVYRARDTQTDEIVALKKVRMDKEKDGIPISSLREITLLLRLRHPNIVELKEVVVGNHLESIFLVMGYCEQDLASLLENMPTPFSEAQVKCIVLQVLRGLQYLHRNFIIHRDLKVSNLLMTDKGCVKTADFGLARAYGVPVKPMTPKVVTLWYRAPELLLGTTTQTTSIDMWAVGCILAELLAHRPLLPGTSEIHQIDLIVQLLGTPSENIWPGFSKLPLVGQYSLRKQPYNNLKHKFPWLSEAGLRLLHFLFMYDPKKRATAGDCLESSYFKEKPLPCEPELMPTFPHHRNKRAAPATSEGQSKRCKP
UniProt Q00535, whole entry, looked up: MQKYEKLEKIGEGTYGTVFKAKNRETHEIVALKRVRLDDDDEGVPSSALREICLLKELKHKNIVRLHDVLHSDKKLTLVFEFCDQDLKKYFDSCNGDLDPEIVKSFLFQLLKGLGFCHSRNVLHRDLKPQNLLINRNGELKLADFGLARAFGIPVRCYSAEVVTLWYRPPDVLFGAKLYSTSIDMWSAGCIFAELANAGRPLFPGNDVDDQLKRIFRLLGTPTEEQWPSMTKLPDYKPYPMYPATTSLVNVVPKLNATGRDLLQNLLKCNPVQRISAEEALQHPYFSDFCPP
UniProt Q00534, whole entry: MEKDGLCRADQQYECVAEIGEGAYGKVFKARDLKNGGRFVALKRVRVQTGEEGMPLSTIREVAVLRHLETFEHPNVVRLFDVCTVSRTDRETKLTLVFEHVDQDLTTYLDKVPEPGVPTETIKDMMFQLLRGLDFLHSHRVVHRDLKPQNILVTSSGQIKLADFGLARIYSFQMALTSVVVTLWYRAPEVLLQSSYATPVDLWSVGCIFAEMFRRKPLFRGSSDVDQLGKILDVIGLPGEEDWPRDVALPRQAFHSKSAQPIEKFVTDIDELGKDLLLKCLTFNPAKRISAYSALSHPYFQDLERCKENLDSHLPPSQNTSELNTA
UniProt P50613: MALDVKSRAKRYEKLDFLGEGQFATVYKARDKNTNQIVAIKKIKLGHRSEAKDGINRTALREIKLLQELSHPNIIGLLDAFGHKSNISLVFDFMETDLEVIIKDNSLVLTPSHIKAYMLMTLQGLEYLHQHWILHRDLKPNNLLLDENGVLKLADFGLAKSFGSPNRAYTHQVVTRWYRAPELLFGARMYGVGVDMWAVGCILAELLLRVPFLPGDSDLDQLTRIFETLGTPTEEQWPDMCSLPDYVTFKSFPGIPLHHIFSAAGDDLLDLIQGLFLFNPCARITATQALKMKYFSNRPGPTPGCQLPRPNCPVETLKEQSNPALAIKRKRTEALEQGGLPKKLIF
UniProt O96017, whole entry: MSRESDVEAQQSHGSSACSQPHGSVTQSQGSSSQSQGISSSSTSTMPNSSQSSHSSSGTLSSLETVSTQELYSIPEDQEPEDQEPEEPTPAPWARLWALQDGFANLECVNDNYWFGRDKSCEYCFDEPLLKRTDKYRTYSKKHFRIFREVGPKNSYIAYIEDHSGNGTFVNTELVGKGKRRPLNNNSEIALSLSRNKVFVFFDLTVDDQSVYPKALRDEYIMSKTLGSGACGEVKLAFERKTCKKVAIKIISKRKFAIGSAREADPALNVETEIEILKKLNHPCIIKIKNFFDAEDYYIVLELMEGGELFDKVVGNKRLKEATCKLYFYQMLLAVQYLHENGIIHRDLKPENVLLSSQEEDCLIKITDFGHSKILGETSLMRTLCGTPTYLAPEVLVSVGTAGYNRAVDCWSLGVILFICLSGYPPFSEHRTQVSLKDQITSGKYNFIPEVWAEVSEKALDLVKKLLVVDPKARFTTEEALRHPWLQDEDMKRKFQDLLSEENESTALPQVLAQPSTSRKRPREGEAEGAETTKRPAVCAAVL
UniProt P07333, whole entry: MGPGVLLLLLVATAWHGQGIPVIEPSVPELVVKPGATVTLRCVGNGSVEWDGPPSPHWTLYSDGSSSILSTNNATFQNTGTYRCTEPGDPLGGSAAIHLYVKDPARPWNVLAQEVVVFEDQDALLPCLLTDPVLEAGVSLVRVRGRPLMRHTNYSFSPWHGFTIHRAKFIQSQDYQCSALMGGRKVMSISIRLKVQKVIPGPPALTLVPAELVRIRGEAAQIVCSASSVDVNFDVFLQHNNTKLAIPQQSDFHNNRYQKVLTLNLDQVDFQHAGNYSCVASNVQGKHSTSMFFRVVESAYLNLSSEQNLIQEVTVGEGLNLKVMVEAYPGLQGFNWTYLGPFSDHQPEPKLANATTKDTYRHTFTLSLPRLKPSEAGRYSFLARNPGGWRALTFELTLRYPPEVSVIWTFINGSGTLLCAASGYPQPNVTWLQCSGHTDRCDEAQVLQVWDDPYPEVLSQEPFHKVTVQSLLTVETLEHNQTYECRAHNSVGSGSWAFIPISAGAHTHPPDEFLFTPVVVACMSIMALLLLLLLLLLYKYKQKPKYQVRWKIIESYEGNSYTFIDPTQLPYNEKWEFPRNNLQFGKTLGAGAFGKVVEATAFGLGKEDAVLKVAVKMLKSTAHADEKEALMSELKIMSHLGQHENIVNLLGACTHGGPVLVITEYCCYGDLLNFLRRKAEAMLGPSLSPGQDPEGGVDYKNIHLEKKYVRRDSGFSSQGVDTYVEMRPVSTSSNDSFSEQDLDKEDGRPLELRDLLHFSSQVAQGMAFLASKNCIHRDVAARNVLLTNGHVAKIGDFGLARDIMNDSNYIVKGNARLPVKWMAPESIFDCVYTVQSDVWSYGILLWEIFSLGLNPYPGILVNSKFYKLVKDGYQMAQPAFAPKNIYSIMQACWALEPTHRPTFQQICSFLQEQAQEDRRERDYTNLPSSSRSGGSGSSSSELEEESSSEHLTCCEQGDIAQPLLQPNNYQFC
UniProt P41240: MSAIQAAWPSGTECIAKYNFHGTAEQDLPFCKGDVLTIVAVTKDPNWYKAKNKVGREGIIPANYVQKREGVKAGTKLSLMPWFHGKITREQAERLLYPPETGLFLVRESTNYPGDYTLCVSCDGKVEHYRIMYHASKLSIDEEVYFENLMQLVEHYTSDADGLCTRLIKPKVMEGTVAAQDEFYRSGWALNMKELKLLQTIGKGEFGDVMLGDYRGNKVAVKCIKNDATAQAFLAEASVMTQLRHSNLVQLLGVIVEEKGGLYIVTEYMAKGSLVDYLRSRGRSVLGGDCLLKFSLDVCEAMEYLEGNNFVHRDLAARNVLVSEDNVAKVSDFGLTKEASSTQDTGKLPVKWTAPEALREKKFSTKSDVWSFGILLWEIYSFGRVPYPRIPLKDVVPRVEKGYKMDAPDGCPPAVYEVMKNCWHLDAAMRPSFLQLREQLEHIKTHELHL
UniProt P48730: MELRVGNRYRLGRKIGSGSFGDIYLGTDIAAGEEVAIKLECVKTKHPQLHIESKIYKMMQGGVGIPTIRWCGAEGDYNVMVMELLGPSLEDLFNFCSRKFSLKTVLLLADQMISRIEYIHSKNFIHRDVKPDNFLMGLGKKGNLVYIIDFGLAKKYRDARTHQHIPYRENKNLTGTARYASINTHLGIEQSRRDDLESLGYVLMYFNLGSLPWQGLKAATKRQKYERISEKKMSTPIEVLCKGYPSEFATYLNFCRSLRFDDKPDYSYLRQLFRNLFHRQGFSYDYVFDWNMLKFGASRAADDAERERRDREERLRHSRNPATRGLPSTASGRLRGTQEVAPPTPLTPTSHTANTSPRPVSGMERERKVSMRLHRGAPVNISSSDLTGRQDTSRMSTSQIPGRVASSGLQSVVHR
UniProt Q08345: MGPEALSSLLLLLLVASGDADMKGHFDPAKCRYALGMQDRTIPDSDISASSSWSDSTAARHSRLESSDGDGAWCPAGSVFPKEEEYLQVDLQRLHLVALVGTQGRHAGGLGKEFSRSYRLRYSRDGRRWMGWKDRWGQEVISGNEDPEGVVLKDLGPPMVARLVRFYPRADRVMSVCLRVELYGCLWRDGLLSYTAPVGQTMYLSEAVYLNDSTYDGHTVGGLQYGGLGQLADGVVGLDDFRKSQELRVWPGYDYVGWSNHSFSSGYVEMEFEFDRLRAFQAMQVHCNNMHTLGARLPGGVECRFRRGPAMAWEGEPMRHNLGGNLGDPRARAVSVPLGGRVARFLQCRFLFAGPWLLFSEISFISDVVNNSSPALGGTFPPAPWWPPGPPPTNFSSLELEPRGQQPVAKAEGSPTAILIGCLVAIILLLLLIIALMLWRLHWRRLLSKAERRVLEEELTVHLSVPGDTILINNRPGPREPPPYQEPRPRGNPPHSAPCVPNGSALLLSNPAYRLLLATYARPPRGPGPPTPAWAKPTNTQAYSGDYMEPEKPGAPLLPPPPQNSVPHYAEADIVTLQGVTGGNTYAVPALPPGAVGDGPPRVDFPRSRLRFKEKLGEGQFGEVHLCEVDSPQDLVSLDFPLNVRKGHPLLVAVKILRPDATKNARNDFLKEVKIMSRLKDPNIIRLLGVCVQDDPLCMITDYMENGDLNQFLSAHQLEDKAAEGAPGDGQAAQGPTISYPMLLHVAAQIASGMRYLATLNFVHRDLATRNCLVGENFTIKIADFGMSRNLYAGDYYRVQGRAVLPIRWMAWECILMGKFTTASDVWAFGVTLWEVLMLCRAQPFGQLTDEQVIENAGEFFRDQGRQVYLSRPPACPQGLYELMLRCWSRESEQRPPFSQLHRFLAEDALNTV
UniProt Q9Y463, whole entry, looked up: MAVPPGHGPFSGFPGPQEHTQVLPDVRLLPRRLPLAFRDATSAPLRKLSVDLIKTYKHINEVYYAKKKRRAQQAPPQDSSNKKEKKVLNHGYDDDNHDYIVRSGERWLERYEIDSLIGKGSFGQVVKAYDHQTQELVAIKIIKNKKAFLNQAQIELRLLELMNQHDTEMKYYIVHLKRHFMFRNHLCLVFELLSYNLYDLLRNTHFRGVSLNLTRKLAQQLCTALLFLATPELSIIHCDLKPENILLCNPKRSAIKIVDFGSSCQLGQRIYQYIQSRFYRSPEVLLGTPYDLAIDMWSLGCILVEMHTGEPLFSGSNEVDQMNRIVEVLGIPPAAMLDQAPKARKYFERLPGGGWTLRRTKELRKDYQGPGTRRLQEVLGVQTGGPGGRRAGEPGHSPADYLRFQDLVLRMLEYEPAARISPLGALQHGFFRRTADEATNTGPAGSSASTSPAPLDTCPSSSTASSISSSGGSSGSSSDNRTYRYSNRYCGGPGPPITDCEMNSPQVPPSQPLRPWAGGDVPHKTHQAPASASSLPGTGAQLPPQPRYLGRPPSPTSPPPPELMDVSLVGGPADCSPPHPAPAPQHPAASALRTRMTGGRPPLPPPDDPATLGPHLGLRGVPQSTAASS
UniProt Q92630: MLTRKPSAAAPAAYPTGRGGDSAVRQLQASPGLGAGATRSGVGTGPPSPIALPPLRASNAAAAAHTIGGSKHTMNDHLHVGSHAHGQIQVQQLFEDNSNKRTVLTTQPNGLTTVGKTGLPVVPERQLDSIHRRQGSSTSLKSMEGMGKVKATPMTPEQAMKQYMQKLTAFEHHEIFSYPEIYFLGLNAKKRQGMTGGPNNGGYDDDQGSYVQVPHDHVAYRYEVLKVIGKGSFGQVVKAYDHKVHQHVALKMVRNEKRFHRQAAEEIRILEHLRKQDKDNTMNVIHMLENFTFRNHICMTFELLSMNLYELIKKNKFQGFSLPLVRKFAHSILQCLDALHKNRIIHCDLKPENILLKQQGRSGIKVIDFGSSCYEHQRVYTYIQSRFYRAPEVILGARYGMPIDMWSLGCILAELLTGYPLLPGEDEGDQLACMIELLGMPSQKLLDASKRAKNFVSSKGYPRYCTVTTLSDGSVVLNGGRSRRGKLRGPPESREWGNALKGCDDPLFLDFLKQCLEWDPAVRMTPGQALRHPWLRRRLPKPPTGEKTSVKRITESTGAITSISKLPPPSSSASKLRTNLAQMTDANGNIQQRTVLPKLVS

Legend:
Assay in all cases: kinase-Nluc reporter destabilization hit call (1 = scored as downregulated) (binary); higher = compound decreases kinase abundance
Conditions in all cases: K562; 2-18 h
[1] = system: BRAF_V600E
[2] = molecular target: BTK (UniProt Q06187)
[3] = molecular target: CAMK2A (UniProt Q9UQM7)
[4] = molecular target: CAMK2G (UniProt Q13555)
[5] = molecular target: CDK10 (UniProt Q15131)
[6] = molecular target: CDK2 (UniProt P24941)
[7] = molecular target: CDK3 (UniProt Q00526)
[8] = molecular target: CDK4 (UniProt P11802)
[9] = molecular target: CDK5 (UniProt Q00535)
[10] = molecular target: CDK6 (UniProt Q00534)
[11] = molecular target: CDK7 (UniProt P50613)
[12] = molecular target: CDK9 (UniProt P50750)
[13] = molecular target: CHEK2 (UniProt O96017)
[14] = molecular target: CSF1R (UniProt P07333)
[15] = molecular target: CSK (UniProt P41240)
[16] = molecular target: CSNK1A1 (UniProt P48729)
[17] = molecular target: CSNK1D (UniProt P48730)
[18] = molecular target: DDR1 (UniProt Q08345)
[19] = molecular target: DYRK1B (UniProt Q9Y463)
[20] = molecular target: DYRK2 (UniProt Q92630)

Measured: kinase-Nluc reporter destabilization hit call

Oc1cc2c(cc1O)C(Cc1cccc3ccccc13)NCC2 (stereo not drawn) (10 µM)
inactive: [1] 0 | [2] 0 | [3] 0 | [4] 0 | [5] 0 | [6] 0 | [7] 0 | [8] 0 | [9] 0 | [10] 0 | [11] 0 | [12] 0 | [13] 0 | [14] 0 | [15] 0 | [16] 0 | [17] 0 | [18] 0 | [19] 0 | [20] 0

O=C(NCCN1CCOCC1)c1cc2c(Oc3ccc(NC(=O)C4(C(=O)Nc5ccc(F)cc5)CC4)cc3)ccnc2[nH]1 [Tyrosine kinase inhibitor] (10 µM)
inactive: [1] 0 | [2] 0 | [3] 0 | [4] 0 | [5] 0 | [6] 0 | [7] 0 | [8] 0 | [9] 0 | [10] 0 | [11] 0 | [12] 0 | [13] 0 | [14] 0 | [15] 0 | [16] 0 | [17] 0 | [18] 0 | [19] 0 | [20] 0

NC(=O)c1nnc(N[C@@H]2CCCC[C@@H]2N)nc1Nc1cccc2cc[nH]c12 (10 µM)
inactive: [1] 0 | [2] 0 | [3] 0 | [4] 0 | [5] 0 | [6] 0 | [7] 0 | [8] 0 | [9] 0 | [10] 0 | [11] 0 | [12] 0 | [13] 0 | [14] 0 | [15] 0 | [16] 0 | [17] 0 | [18] 0 | [19] 0 | [20] 0

CCc1cc2c(cc1N1CCC(N3CCOCC3)CC1)C(C)(C)c1[nH]c3cc(C#N)ccc3c1C2=O [Alectinib] (10 µM)
inactive: [1] 0 | [2] 0 | [3] 0 | [4] 0 | [5] 0 | [6] 0 | [7] 0 | [8] 0 | [9] 0 | [10] 0 | [11] 0 | [12] 0 | [13] 0 | [14] 0 | [15] 0 | [16] 0 | [17] 0 | [18] 0 | [19] 0 | [20] 0

COc1cc2nccc(Oc3ccc(NC(=O)NC4CC4)c(Cl)c3)c2cc1C(N)=O [Lenvatinib (mesylate)] (10 µM)
inactive: [1] 0 | [2] 0 | [3] 0 | [4] 0 | [5] 0 | [6] 0 | [7] 0 | [8] 0 | [9] 0 | [10] 0 | [11] 0 | [12] 0 | [13] 0 | [14] 0 | [15] 0 | [16] 0 | [17] 0 | [18] 0 | [19] 0 | [20] 0

Cc1[nH]c(/C=C2\C(=O)Nc3ccccc32)c(C)c1CCC(=O)O [(Z)-Orantinib] (10 µM)
inactive: [1] 0 | [2] 0 | [3] 0 | [4] 0 | [5] 0 | [6] 0 | [7] 0 | [8] 0 | [9] 0 | [10] 0 | [11] 0 | [12] 0 | [13] 0 | [14] 0 | [15] 0 | [16] 0 | [18] 0 | [19] 0 | [20] 0

CCC(C)N1c2ccccc2C(=O)N(C)c2cnc(Nc3ccc(C(=O)N4CCC(N5CCN(C)CC5)CC4)cc3OC)nc21 (stereo not drawn) (2.5 µM)
inactive: [1] 0 | [2] 0 | [3] 0 | [4] 0 | [5] 0 | [6] 0 | [7] 0 | [8] 0 | [9] 0 | [10] 0 | [11] 0 | [12] 0 | [13] 0 | [14] 0 | [15] 0 | [16] 0 | [17] 0 | [18] 0 | [19] 0 | [20] 0

C[C@]1(O)CCN(c2nc(N3C[C@H](O)[C@@H](O)C3)cc(C(F)(F)F)c2C#N)C1 (10 µM)
inactive: [1] 0 | [2] 0 | [3] 0 | [4] 0 | [5] 0 | [6] 0 | [7] 0 | [8] 0 | [9] 0 | [10] 0 | [11] 0 | [12] 0 | [13] 0 | [14] 0 | [15] 0 | [16] 0 | [17] 0 | [18] 0 | [19] 0 | [20] 0

COc1ccc(-c2ccc3c(N4CCOCC4)nc(N4C[C@@H](C)O[C@@H](C)C4)nc3n2)cc1CO (2.5 µM)
inactive: [1] 0 | [2] 0 | [3] 0 | [4] 0 | [5] 0 | [6] 0 | [7] 0 | [8] 0 | [9] 0 | [10] 0 | [11] 0 | [12] 0 | [13] 0 | [14] 0 | [15] 0 | [16] 0 | [17] 0 | [18] 0 | [19] 0 | [20] 0

O=Nc1c(-c2c(O)[nH]c3ccc(I)cc23)[nH]c2ccccc12 [5-Iodo-indirubin-3'-monoxime] (10 µM)
inactive: [1] 0 | [2] 0 | [3] 0 | [4] 0 | [5] 0 | [6] 0 | [7] 0 | [8] 0 | [9] 0 | [10] 0 | [11] 0 | [12] 0 | [13] 0 | [14] 0 | [15] 0 | [16] 0 | [17] 0 | [18] 0 | [19] 0 | [20] 0

Nc1ncnc2c1c(-c1cccc(OCc3ccccc3)c1)cn2C1CC(CN2CCC2)C1 (stereo not drawn) (2.5 µM)
inactive: [1] 0 | [2] 0 | [3] 0 | [4] 0 | [5] 0 | [6] 0 | [7] 0 | [8] 0 | [9] 0 | [10] 0 | [11] 0 | [12] 0 | [13] 0 | [14] 0 | [15] 0 | [16] 0 | [17] 0 | [18] 0 | [19] 0 | [20] 0

COCCNc1nc2ccc(C#CC3(O)CCCCC3)cc2n1-c1ccnc(N)n1 (10 µM)
inactive: [1] 0 | [2] 0 | [3] 0 | [4] 0 | [5] 0 | [6] 0 | [7] 0 | [8] 0 | [9] 0 | [10] 0 | [11] 0 | [12] 0 | [13] 0 | [14] 0 | [15] 0 | [16] 0 | [17] 0 | [18] 0 | [19] 0 | [20] 0

CCN1CCN(Cc2ccc(Nc3ncc(F)c(-c4cc(F)c5nc(C)n(C(C)C)c5c4)n3)nc2)CC1 [Abemaciclib (methanesulfonate)] (10 µM)
inactive: [1] 0 | [2] 0 | [3] 0 | [4] 0 | [5] 0 | [7] 0 | [8] 0 | [9] 0 | [10] 0 | [11] 0 | [12] 0 | [13] 0 | [14] 0 | [15] 0 | [16] 0 | [17] 0 | [18] 0 | [19] 0 | [20] 0

Three compounds already listed, sorted by count of non-hydrogen atoms, descending.
COc1ccc(-c2ccc3c(N4CCOCC4)nc(N4C[C@@H](C)O[C@@H](C)C4)nc3n2)cc1CO (2.5 µM)
inactive: [1] 0 | [2] 0 | [3] 0 | [4] 0 | [5] 0 | [6] 0 | [7] 0 | [8] 0 | [9] 0 | [10] 0 | [11] 0 | [12] 0 | [13] 0 | [14] 0 | [15] 0 | [16] 0 | [17] 0 | [18] 0 | [19] 0 | [20] 0

COc1cc2nccc(Oc3ccc(NC(=O)NC4CC4)c(Cl)c3)c2cc1C(N)=O [Lenvatinib (mesylate)] (10 µM)
inactive: [1] 0 | [2] 0 | [3] 0 | [4] 0 | [5] 0 | [6] 0 | [7] 0 | [8] 0 | [9] 0 | [10] 0 | [11] 0 | [12] 0 | [13] 0 | [14] 0 | [15] 0 | [16] 0 | [17] 0 | [18] 0 | [19] 0 | [20] 0

Cc1[nH]c(/C=C2\C(=O)Nc3ccccc32)c(C)c1CCC(=O)O [(Z)-Orantinib] (10 µM)
inactive: [1] 0 | [2] 0 | [3] 0 | [4] 0 | [5] 0 | [6] 0 | [7] 0 | [8] 0 | [9] 0 | [10] 0 | [11] 0 | [12] 0 | [13] 0 | [14] 0 | [15] 0 | [16] 0 | [18] 0 | [19] 0 | [20] 0

(cont.)

Cc1c(-c2c(F)cc(C(N)=O)c3[nH]c4c(c23)CC[C@H](C(C)(C)O)C4)cccc1-n1c(=O)c2cccc(F)c2n(C)c1=O (2.5 µM)
inactive: [1] 0 | [2] 0 | [3] 0 | [4] 0 | [5] 0 | [6] 0 | [7] 0 | [8] 0 | [9] 0 | [10] 0 | [11] 0 | [12] 0 | [13] 0 | [14] 0 | [15] 0 | [16] 0 | [17] 0 | [18] 0 | [19] 0 | [20] 0

CN1CCN(c2cccc(Nc3nc4c(-c5ccc(S(C)(=O)=O)cc5)cccn4n3)c2)CC1 (10 µM)
inactive: [1] 0 | [2] 0 | [3] 0 | [4] 0 | [5] 0 | [6] 0 | [7] 0 | [8] 0 | [9] 0 | [10] 0 | [11] 0 | [12] 0 | [13] 0 | [14] 0 | [15] 0 | [16] 0 | [17] 0 | [18] 0 | [19] 0 | [20] 0

O=C1N[C@@H](Cc2c[nH]c3ccccc23)C(=O)N2CCC[C@@H]12 [Brevianamide F] (10 µM)
inactive: [1] 0 | [2] 0 | [3] 0 | [4] 0 | [5] 0 | [6] 0 | [7] 0 | [8] 0 | [9] 0 | [10] 0 | [11] 0 | [12] 0 | [13] 0 | [14] 0 | [15] 0 | [16] 0 | [17] 0 | [18] 0 | [19] 0 | [20] 0
